For the experiment, the target named is Breast cancer type 1 susceptibility protein (BRCA1), endogenous (human (endogenous in HEK293T and HeLa)) (UniProt P38398). The experiment is described as follows: co-IP.

Amino acid sequences for entries named in this document (tags omitted). A change or cut given only in a name is not applied to a line headed by its entry. Chains listed by the source or under a name are the forms on record and can include a tag or linker.
UniProt P38398: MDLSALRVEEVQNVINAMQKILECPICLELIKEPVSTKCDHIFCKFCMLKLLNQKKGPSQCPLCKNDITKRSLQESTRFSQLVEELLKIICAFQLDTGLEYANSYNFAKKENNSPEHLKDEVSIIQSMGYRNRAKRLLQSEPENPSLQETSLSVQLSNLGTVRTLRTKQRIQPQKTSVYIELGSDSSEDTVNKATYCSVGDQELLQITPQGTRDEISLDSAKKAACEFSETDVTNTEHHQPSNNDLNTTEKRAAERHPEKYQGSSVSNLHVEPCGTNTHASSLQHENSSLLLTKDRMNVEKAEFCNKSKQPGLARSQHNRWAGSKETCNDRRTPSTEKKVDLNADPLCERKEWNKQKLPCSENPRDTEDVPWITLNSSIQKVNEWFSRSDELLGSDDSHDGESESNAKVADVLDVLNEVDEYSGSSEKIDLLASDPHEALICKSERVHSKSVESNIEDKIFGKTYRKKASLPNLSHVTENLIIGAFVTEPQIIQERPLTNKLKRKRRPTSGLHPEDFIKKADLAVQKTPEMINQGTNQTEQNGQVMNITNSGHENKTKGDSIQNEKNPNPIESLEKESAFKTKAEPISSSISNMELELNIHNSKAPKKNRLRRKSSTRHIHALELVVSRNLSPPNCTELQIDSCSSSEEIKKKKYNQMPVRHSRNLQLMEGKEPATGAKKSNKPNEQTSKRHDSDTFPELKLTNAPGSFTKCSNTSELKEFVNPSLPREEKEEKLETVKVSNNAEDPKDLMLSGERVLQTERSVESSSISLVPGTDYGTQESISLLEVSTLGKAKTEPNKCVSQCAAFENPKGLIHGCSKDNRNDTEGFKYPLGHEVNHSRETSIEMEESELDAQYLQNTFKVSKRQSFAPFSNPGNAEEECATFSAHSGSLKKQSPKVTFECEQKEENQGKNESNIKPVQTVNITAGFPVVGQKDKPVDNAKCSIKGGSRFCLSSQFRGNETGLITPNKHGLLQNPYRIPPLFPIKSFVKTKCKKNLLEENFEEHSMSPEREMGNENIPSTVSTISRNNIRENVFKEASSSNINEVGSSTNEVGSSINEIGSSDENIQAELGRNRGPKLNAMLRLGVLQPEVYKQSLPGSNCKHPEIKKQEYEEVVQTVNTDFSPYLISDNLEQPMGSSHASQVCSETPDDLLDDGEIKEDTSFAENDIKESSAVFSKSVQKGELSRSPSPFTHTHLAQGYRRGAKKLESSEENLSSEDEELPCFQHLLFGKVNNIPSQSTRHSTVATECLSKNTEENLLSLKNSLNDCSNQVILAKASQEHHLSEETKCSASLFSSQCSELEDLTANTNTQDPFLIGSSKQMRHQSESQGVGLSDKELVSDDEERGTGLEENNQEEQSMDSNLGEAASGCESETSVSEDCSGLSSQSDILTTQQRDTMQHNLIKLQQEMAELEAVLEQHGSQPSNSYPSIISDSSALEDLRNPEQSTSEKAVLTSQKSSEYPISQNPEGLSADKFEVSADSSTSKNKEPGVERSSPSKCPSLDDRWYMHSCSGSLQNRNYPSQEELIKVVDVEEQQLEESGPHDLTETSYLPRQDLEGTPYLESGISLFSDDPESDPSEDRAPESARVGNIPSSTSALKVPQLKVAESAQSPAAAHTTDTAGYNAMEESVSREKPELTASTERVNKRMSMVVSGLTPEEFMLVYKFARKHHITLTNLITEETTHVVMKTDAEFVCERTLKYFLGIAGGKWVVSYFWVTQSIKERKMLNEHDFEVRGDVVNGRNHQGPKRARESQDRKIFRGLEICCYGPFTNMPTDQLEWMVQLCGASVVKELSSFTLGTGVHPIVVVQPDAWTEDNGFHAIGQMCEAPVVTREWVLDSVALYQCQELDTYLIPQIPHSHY
endogenous full-length GIV (human cell lysates) (Q3V6T2-3, form named): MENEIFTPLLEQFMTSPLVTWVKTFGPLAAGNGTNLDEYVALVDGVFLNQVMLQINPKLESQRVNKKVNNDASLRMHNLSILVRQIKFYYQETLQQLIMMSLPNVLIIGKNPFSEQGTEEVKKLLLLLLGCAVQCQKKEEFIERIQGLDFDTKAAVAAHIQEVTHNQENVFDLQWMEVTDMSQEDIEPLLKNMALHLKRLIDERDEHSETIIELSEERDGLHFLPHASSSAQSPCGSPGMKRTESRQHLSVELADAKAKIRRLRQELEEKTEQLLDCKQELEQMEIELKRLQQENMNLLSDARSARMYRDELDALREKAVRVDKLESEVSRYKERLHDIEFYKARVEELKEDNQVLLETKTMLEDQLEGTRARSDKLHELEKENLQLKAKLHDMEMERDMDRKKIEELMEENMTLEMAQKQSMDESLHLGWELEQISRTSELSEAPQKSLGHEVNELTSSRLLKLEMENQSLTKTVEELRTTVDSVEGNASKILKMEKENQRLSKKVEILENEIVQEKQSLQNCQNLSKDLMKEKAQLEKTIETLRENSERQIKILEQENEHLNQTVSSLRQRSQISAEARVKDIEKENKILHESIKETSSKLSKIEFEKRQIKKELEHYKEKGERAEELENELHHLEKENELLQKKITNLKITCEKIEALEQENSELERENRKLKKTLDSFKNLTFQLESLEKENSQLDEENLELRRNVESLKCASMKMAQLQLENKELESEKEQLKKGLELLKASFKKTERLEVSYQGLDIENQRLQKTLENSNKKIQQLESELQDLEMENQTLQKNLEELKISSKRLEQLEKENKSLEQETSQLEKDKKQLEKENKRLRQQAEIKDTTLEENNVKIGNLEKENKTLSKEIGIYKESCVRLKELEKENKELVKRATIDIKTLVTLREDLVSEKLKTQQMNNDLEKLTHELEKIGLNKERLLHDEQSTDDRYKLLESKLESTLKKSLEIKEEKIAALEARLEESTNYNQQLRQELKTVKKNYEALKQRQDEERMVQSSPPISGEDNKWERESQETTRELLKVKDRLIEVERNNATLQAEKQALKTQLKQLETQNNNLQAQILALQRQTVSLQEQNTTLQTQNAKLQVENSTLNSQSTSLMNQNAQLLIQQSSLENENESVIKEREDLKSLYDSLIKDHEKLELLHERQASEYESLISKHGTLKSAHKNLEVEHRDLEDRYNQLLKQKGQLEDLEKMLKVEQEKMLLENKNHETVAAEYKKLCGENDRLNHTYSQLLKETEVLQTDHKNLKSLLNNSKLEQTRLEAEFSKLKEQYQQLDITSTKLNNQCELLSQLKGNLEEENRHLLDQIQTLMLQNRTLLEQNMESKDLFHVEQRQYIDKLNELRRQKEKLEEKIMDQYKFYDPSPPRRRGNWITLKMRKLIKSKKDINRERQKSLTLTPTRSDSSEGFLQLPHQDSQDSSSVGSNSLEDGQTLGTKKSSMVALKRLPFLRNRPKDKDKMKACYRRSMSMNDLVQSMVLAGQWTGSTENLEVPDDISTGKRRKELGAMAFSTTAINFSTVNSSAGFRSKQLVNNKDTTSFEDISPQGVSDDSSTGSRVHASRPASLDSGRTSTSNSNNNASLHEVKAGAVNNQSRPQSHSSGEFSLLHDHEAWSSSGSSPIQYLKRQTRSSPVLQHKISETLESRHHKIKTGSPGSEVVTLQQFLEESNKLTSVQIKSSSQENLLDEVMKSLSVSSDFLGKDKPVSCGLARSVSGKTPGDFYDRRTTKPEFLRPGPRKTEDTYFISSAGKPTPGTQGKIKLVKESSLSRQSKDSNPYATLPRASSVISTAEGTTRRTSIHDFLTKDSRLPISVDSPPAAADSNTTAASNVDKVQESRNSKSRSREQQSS

Results are given in words; binding and its absence hold for the method and conditions named. Binding seen in cells or lysates may run through a third protein. Some binding calls cover weakened binding; strength is not graded here.

“endogenous full-length GIV (human cell lysates) (from UniProt Q3V6T2-3 1-1870)”: the binding result is “binds”.

These data come from publication doi:10.1101/2021.07.21.452842.
